Test results: publication doi:10.1101/2024.11.09.622756
These are yes or no findings as the source states them, for the method shown. Some results given as binding are weak or reduced against the parent protein; the word gives no strength. Sequences can lack the tags named with a protein.

Target: T1, GpsB (bacterial two-hybrid fusion) (Streptococcus pneumoniae R6) (UniProt Q8DR57)
T1 sequence: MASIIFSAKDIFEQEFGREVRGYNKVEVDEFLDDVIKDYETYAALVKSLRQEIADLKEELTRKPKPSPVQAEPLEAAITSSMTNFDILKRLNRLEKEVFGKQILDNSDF
Test: two-hybrid

B1: PgdA (bacterial two-hybrid fusion) (enzyme, UniProt Q8DP63 1-463)
chain: MNKSRLGRGRHGKTRHVLLALIGILAISICLLGGFIAFKIYQQKSFEQKIESLKKEKDDQLSEGNQKEHFRQGQAEVIAYYPLQGEKVISSVRELINQDVKDKLESKDNLVFYYTEQEESGLKGVVNRNVTKQIYDLVAFKIEETEKTSLGKVHLTEDGQPFTLDQLFSDASKAKEQLIKELTSFIEDKKIEQDQSEQIVKNFSDQDLSAWNFDYKDSQIILYPSPVVENLEEIALPVSAFFDVIQSSYLLEKDAALYQSYFDKKHQKVVALTFDDGPNPATTPQVLETLAKYDIKATFFVLGKNVSGNEDLVKRIKSEGHVVGNHSWSHPILSQLSLDEAKKQITDTEDVLTKVLGSSSKLMRPPYGAITDDIRNSLDLSFIMWDVDSLDWKSKNEASILTEIQHQVANGSIVLMHDIHSPTVNALPRVIEYLKNQGYTFVTIPEMLNTRLKAHELYYSRDE
binding: binds
